Data reported in patent US10857214B2, “Compositions and methods for treating gluten intolerance and disorders arising therefrom” (Codexis, Inc., priority 2015, dated 2020).

B1: neprosin: 29 kDa prolyl endoprotease isolated from Nepenthes pitcher fluid (fraction 2), SEQ ID NO.: 1 (protein)
chain: MQAKFFTFVILSSVFYFNYPLAEARSIQARLANKPKGTIKTIKGDDGEVVDCVDIYKQPAFDHPLLKNHTLQMQPSSYASKVGEYNKLEQPWHKNGECPKGSIPIRRQVITGLPVVKKQFPNLKFAPPSANTNHQYAVIAYFYGNASLQGANATINIWEPNLKNPNGDFSLTQIWISAGSGSSLNTIEAGWQVYPGRTGDSQPRFFIYWTADGYTSTGCYDLTCPGFVQTNNYYAIGMALQPSVYGGQQYELNESIQRDPATGNWWLYLWGTVVGYWPASIYNSITNGADTVEWGGEIYDSSGTGGFHTTTQMGSGHFPTEGYGKASYVRDLQCVDTYGNVISPTANSFQGIAPAPNCYNYQFQQGSSELYLFYGGPGCQ

Tested on: crude gliadin
Experiment: SDS-PAGE and proteomic LC-MS/MS analysis of crude gliadin digests
Type: biochemical, Triticum aestivum
Protocol: Digestions at pH 2.5 and 37° C., for 90 min. All concentrations in μM. M: Molecular weight markers, and gliadin: total crude gliadin in the absence of protease. […] Peptide data from LC-MS/MS runs, with intensities obtained using Protein Deconvolution 1.0. […] Digest progress was monitored by gravimetric analysis, optical transmission, SDS-PAGE and mass spectrometry. […] For monitoring with optical transmission, digestion reactions were conducted in 96-well plate with ≥3 replicates of each reaction condition, and turbidity monitored at 595 nm at 37° C. every 2 minutes, for 90 minutes (SpectraMax plate reader, Molecular Devices). […] An aliquot of the reaction mixture was analyzed on an 8% SDS-PAGE gel. The remaining amount was centrifuged and the supernatant was analyzed by mass spectrometry. Supernatant was analyzed by data-dependent LC-MS/MS, in two 1-hour reversed phase gradient runs, configured for top-10 ion selection using CID in a high/low configuration. […]

Molecule | share of total digest signal accounted for by identified peptides (pepsin 5 μM, fluid protease 0.46 μM, co-digestion using these two concentrations) [%] | share of total signal accounted for by the low molecular weight fraction (crude gliadin slurry digested with purified neprosin alone) [%]
pepsin: gastric enzyme (EC 3.4.23.1) used as control protease | 13 | 
B1 |  | 10
